This passage reports protein results from US4865840A, “Topical compositions containing selenoamino acids for the prevention of ultraviolet radiation-induced skin damage” (priority 1987, dated 1989).

A short description of this series: hepatic protein after 39 weeks. In kind it is in vivo, BALBc mice.

As for `C[Se]CC[C@H](N)C(=O)O` [L-selenomethionine], the protein reads like this: (UV +, d.water, n = 20) 15.82 ± .41 mg/g; (UV +, topical, n = 13) 15.45 ± .45 mg/g; (UV -, d.water, n = 4) 16.29 ± .86 mg/g; (UV -, topical, n = 4) 13.96 ± .87 mg/g.
